# Data source: PubChem BioAssay AID1259254 (NCATS, 2017)
# Test: 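Finding genes that stop cells copying their DNA twice in one cycle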 (primary screen)
# Cell system: human HCT116 colorectal cancer cells
# Reagents: single siRNA against human genes
# Duration: 3 days
# Read-out: 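Imaged Hoechst DNA stain sorts each cell into a cycle phase by DNA amount; per plate, G2 fraction set to 0% for non-targeting and 100% for GMNN siRNA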
# Reading the numbers: G2 robust z-score and G2 cells, % of GMNN control: higher = more G2 cells, more excess DNA replication; raw share of cells in G2: higher = larger share of cells with G2 DNA content
# Hit rule: 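Active siRNAs have a G2 robust z of 5 or more median absolute deviations over the median, which in these data means about 38% or higher of GMNN control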
# Shown is an unselected part of about 59,000 deposited reagents. About 1,550 of all reagents (2.6%) count as active. 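G2 share is only a proxy for re-replication; each gene was hit by three separate siRNAs, and active genes were retested.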 The raw values are shown without normalisation. A number with no mark means an inactive call. Reagents against one gene are numbered here. Not stated in the record: the amount of reagent.
Target gene,reagent,G2 robust z-score,"G2 cells, % of GMNN control",raw share of cells in G2 (%)
FAAHP1,1,0.158,4.08,4.7
FAAHP1,2,3.67,28.8,15
FAAHP1,3,-0.895,-3.33,2.24
ATG2B,1,-0.677,-1.8,3.83
ATG2B,2,0.739,8.16,7.52
ATG2B,3,0.188,4.29,4.51
TAL1,1,-0.609,-1.32,3.26
TAL1,2,4.44,34.2,16.2
TAL1,3,-0.582,-1.13,4.78
LYSMD4,1,-0.0638,2.52,4.67
LYSMD4,2,0.208,4.43,4.28
LYSMD4,3,2.27,18.9,9.66
OR2B3,1,0.705,7.93,6.68
OR2B3,2,0.00141,2.98,4.55
OR2B3,3,3.75,29.4,13.1
TARM1,1,0.982,9.88,6.48
TARM1,2,1.39,12.8,8.55
TARM1,3,1.02,10.2,7.27
FRK,1,1.65,14.6,10.4
FRK,2,-0.573,-1.06,5.05
FRK,3,1.84,15.9,9.63
ADD2,1,6.09 (active),45.8,20.3
ADD2,2,0.294,5.04,5.87
ADD2,3,-0.347,0.529,5.26
C1orf105,1,1.06,10.4,8.5
C1orf105,2,0.394,5.74,4.8
C1orf105,3,3.75,29.3,12.2
PCARE,1,-0.00279,2.95,4.78
PCARE,2,-0.452,-0.214,3.31
PCARE,3,0.597,7.17,7.71
KAT8,1,-0.784,-2.55,3.84
KAT8,2,-0.957,-3.76,2.83
KAT8,3,-0.572,-1.06,4.99
MEGF10,1,0.222,4.53,6.46
MEGF10,2,3.5,27.6,16.9
MEGF10,3,-0.0233,2.8,5.21
BBS10,1,0.678,7.74,5.52
BBS10,2,4.16,32.2,20.5
BBS10,3,0.749,8.24,6.22
GNAI1,1,0.991,9.94,8.85
GNAI1,2,0.903,9.32,8.81
GNAI1,3,-0.476,-0.38,3.52
TUBA4A,1,1.24,11.7,10.5
TUBA4A,2,1.53,13.8,9
TUBA4A,3,-0.273,1.05,4.65
HMGCL,1,2.78,22.5,13.2
HMGCL,2,0.302,5.09,7.62
HMGCL,3,-0.929,-3.57,2.89
SLC19A4P,1,-0.547,-0.878,2.75
SLC19A4P,2,1.86,16,10.7
SLC19A4P,3,0.267,4.85,6.78
PHYH,1,0.187,4.28,6.19
PHYH,2,0.331,5.3,5.09
PHYH,3,-0.843,-2.96,3.41
MSH4,1,0.12,3.81,6.83
MSH4,2,-0.5,-0.554,5.25
MSH4,3,-0.871,-3.16,2.15
TUBB2B,1,0.269,4.86,8
TUBB2B,2,0.0998,3.67,5.62
TUBB2B,3,-1.26,-5.87,2.67
DRC2,1,-0.488,-0.468,3.89
DRC2,2,-0.323,0.693,3.22
DRC2,3,0.161,4.1,4.22
EGR1,1,3.92,30.6,16.3
EGR1,2,0.473,6.3,7.66
EGR1,3,0.56,6.91,6.12
C1QTNF9,1,-0.657,-1.66,3.42
C1QTNF9,2,1.48,13.4,9.12
C1QTNF9,3,-0.932,-3.59,2.74
PHC1,1,1.07,10.5,9.06
PHC1,2,-0.64,-1.53,4.68
PHC1,3,0.841,8.89,6.82
OR51E2,1,-0.236,1.31,4.99
OR51E2,2,0.619,7.32,7.51
OR51E2,3,-0.933,-3.6,1.39
NEUROD2,1,-0.528,-0.747,5.17
NEUROD2,2,6.8 (active),50.8,25
NEUROD2,3,-0.591,-1.19,2.8
ARL16,1,-1.12,-4.89,2.22
ARL16,2,-1.2,-5.45,2.11
ARL16,3,0.595,7.15,6.39
ZNF418,1,0.387,5.69,5.14
ZNF418,2,0.771,8.39,6.24
ZNF418,3,-0.081,2.4,3.92
ZNF418,4,-0.646,-1.58,2.62
ZNF418,5,0.151,4.03,4.94
ZNF418,6,-0.675,-1.78,3.39
